The numbers were not newly measured in US20030012825A1, “Metallized molecule therapies” (priority 2000, published 2003), which cites them from elsewhere.

Molecules are shown by their SMILES. Where two headings read alike, the source gives them in different places.

Regarding `COC1=C(OC)C(=O)C(C/C=C(\C)CC/C=C(\C)CC/C=C(\C)CC/C=C(\C)CC/C=C(\C)CC/C=C(\C)CC/C=C(\C)CC/C=C(\C)CC/C=C(\C)CCC=C(C)C)=C(C)C1=O` [Coenzyme Q10], the solubility entry reads like this: (in chloroform, benzene, carbon tetrachloride, acetone and ether) “soluble”; (in ethanol, water and methanol) “insoluble”.
